## Results of single-concentration screens

The values are deposited in ChEMBL (CHEMBL3988442, “University of Dundee, Small-Polar-MMV Screening Library” (2021)).

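Whole-cell growth test on Mycobacterium tuberculosis, read after 4 days in a medium based on cholesterol and the lipid DPPC; the read-out is not stated. Concentration: 50 µM. The record gives no direction; compounds that gave an IC50 in retests scored well above the rest, so higher reads as more growth inhibition. About 69,000 compounds were tested under these conditions; 0.54% (about 370) showed 50% or more at least once.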

The filed quantity is “Percent Effect” (%). How 0% and 100% were set is not recorded. Most values in the screen are low, and negative values occur. The compounds are a random part of those screened. Two or more numbers in one place are separate tests of the same structure; such repeats can differ widely.

| # | Compound | effect |
|---|---|---|
| 1 | `CN1CCCN(C(=O)c2nc3c(s2)CCCN3CC2CC2)CC1` | 5.866 |
| 2 | `CNS(=O)(=O)c1ccsc1C(=O)OC` | 1.32 |
| 3 | `CCc1nnc(CN(CC)C(=O)C2CC(=O)N(C3CC3)C2)o1` (centres undefined) | -6.395 |
| 4 | `CN(C)c1ncncc1NC(=O)Cc1c[nH]c2ccc(F)cc12` | 13.58 |
| 5 | `CN(C)C(=O)C1OC2(CCN(C(=O)N(C)C)CC2)c2ccccc21` (centres undefined) | -7.193 |
| 6 | `COc1cc(C(C)=O)ccc1OC12CCCN(CC1)C2` (centres undefined) | -41.28 |
| 7 | `NC(=O)c1nc(COc2ccc3c(c2)OCO3)no1` | -20.96 |
| 8 | `[H][C@@]12CCN(S(=O)(=O)c3cccnc3)[C@]1([H])CC[C@@H](c1nnc(C)o1)O2` | -4.674 |
| 9 | `c1cc(C2CCN(C3CCCCC3)C2)n[nH]1` (centres undefined) | 3.622 and -2.287 |
| 10 | `CN(C)CC1CCCCN1C(=O)c1ccc(N2CCOCC2)cc1` (centres undefined) | 14.66 |
| 11 | `O=C(NC1CCN(CC2CCCC2)C1)N1CCC(OCC2CC2)CC1` (centres undefined) | 10.11 |
| 12 | `Cc1cccc(C(C)(C)NC(=O)CCS(C)(=O)=O)c1` | -15.56 |
| 13 | `Cc1cccc(CN2CCC(c3nnsc3S(C)(=O)=O)CC2)n1` | 13.46 |
| 14 | `Cc1cs/c(=N\C(=O)Cn2nc(N3CCOCC3)ccc2=O)[nH]1` | -1.892 |
| 15 | `CCCC(O)CN1CCC(=O)N(CC2CC2)Cc2cc3c(cc21)OCO3` (centres undefined) | -32.78 |
| 16 | `CSCCC(CO)NC(=O)c1sc(-c2ccccc2Cl)nc1C` (centres undefined) | -8.555 |
| 17 | `Cc1nnc(NC(=O)c2c3c(nn2C2CCS(=O)(=O)C2)CCC3)s1` (centres undefined) | -2.643 |
| 18 | `O=C1CCC(C(=O)NCc2nn(-c3ccccc3)c3c2CCC3)CN1` (centres undefined) | -7.73 |
| 19 | `O=C(NCCC(=O)N1CCCC1)C(OC1CCCC1)c1ccccc1` (centres undefined) | -54.83 |
| 20 | `O=C(NCc1nc(NC2CCCC2)c2cc(Cl)ccc2n1)c1ccoc1` | -11.51 |
| 21 | `Cc1cnn(C2CCCN(C(=O)c3cc(Cl)c4c(c3)OCO4)C2)c1` (centres undefined) | 12.1 |
| 22 | `CC(=O)N1N=C(c2ccco2)OC1C(=O)N(CC(C)C)CC(C)C` (centres undefined) | -6.754 |
| 23 | `CN(C)C(=O)CN1CCCCC1c1nc(N)ncc1-c1ccccc1` (centres undefined) | -5.649 |
| 24 | `O=C(O)C(F)(F)F.[H][C@]12CCN(C(=O)c3ccco3)[C@@]1([H])CC[C@H](COCCN1CCCC1)O2` | -12.2 |
| 25 | `CCN1CCC(c2nc3ccc(NC(C)C)cn3n2)CC1.O=C(O)C(F)(F)F` | 27.4 and 3.961 |
| 26 | `[H][C@@]12CCC(=O)N(CCCOC)[C@]1([H])CCN(Cc1ccc3nonc3c1)C2` | 15.46 |
| 27 | `CCc1nnc(SC2CCCN(c3cccc(F)c3)C2=O)n1C` (centres undefined) | -11.33 |
| 28 | `Cc1cc(C(=O)N2C[C@H](C(C)C)[C@@H](N(C)C)C2)cs1` | -5.129 |
| 29 | `CCc1cnc(N2CCc3cc(C(=O)NC)c(N(C)C)nc3CC2)nc1.O=C(O)C(F)(F)F` | -18.91 |
| 30 | `O=C(O)C(F)(F)F.[H][C@@]12COC[C@]1(CNC(=O)COC)CN(c1ncc(F)cn1)C2` | -17.86 |
| 31 | `CN(C)C(=O)N1CCOCC2(CCN(c3ccccn3)C2)C1.O=C(O)C(F)(F)F` (centres undefined) | 10.9 |
| 32 | `O=C(O)C(F)(F)F.[H][C@@]12COC[C@]1(COCc1csc(C)n1)CN(Cc1cc(C)on1)C2` | -14.32 |
| 33 | `O=C(NCCCN1CCOCC1)c1cc(-c2ccccc2)[nH]n1` | 11.72 |
| 34 | `O=C(NCCc1nnc2n1CCC2)NCC1(c2ccccc2)CC1` | -17.41 |
| 35 | `Cc1noc(C)c1CNC[C@@]1(COc2cccnc2)C[C@@H](O)[C@@H](O)C1.Cl.Cl` | -12.68 |
| 36 | `CCn1c(C2CCN(C(=O)CCc3cc(Cl)no3)CC2)nn(C)c1=O` | -18.38 |
| 37 | `Cc1n[nH]c(=O)c2c(NC(=O)CN3CCOC(C)C3)oc(C)c12` (centres undefined) | -21.26 |
| 38 | `Cc1cccc(N2CCN(CCC(=O)NCc3cccnc3)CC2)c1` | -1.442 and 14.37 |
| 39 | `Cc1ccc(C(=O)NCCS(=O)(=O)Cc2ccccc2)c(C)c1` | -46.95 |
| 40 | `COc1cc(C(=O)N(Cc2cccs2)C2CC2)cc2c1OCCO2` | 49.95 and 0.2029 |
| 41 | `CN(C)C(=O)CN1CCc2ncnc(NC3CCC3)c2CC1.O=C(O)C(F)(F)F` | -9.549 |
| 42 | `CC[C@@H]1N(Cc2cc(OC)cc(OC)c2)CCC[C@]12CCC(=O)N2C` | -1.667 and -9.675 |
| 43 | `O=C(O)C(F)(F)F.O=C(O)C(F)(F)F.[H][C@@]12CN(CCOC)CC[C@]1([H])CN(Cc1cccnc1OC)C2` | -28.83 |
| 44 | `COCCN1CCCC(C)(c2cc(O)[nH]n2)C1` (centres undefined) | 15.61 |
| 45 | `Cc1nnc(CN(C)CCOc2cccc(Cl)c2)o1` | 3.777 |
| 46 | `Cc1ncc(C(=O)N2CCCC(n3cccn3)C2)s1` (centres undefined) | -7.365 |
| 47 | `O=C(NCC(O)c1cccc(F)c1)c1sccc1OC(F)F` (centres undefined) | -23.79 |
| 48 | `COCCn1ccc(=O)c(OCC(=O)Nc2cccc(Cl)c2)c1C` | 2.491 |
| 49 | `Cc1nc(C)c(C(=O)N2CCCC(c3cnccn3)C2)s1` (centres undefined) | -12.51 |
| 50 | `CC1=C(C(=O)NCCc2n[nH]c3c2CCCC3)C(C)NC(=O)N1` (centres undefined) | -23.74 and -12.52 |
| 51 | `Cc1ncc2c(n1)CN(Cc1nc(-c3ccco3)oc1C)CC2` | 5.844 |
| 52 | `O=C(Cc1ccccc1)NCCNS(=O)(=O)C1CCCCC1` | 8.905 |
| 53 | `CCN1CCN(C(=O)NCc2cc[nH]n2)CC1` | 13.96 |
| 54 | `CCOc1ncccc1CNC(=O)c1cc(C)on1` | -21.13 |

The last 3 entries again:

Compound	effect
O=C(Cc1ccccc1)NCCNS(=O)(=O)C1CCCCC1	8.905
CCN1CCN(C(=O)NCc2cc[nH]n2)CC1	13.96
CCOc1ncccc1CNC(=O)c1cc(C)on1	-21.13